Measured values as given in PMC6899445.
No constants are given. Whether binding was seen depends on the method and setting. Binding seen in cells or lysates may run through a third protein. Some binding calls cover weakened binding; strength is not graded here. For part of these data: Sequences can lack the tags named with a protein. Blank lines part the entries; values can stand above or below the molecule they belong to.

Sequences of proteins named here, by UniProt entry; tags and fusion partners are left off. Residues count along the entry.
UniProt Q99K10, residues 46-843: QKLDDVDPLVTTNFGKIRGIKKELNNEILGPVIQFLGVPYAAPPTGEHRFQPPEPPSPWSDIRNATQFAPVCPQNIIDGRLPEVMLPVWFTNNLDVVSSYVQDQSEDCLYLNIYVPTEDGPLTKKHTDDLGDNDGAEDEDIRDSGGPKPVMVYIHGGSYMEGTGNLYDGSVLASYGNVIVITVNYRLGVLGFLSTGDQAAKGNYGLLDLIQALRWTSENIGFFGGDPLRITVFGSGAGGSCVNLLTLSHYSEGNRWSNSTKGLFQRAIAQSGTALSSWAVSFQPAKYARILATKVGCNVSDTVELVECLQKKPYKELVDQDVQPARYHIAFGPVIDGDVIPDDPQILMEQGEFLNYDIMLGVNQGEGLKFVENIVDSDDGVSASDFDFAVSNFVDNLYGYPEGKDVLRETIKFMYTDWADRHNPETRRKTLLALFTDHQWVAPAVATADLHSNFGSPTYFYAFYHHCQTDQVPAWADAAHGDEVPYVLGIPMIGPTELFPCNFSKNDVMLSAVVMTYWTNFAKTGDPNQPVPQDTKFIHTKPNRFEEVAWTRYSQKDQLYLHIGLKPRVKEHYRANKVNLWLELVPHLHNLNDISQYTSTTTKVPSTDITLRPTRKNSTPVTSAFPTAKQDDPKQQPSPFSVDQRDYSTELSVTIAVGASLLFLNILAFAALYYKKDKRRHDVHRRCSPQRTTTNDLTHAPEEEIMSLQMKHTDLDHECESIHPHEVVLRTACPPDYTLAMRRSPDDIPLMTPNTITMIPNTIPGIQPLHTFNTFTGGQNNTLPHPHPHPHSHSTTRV
UniProt Q62765, residues 46-843: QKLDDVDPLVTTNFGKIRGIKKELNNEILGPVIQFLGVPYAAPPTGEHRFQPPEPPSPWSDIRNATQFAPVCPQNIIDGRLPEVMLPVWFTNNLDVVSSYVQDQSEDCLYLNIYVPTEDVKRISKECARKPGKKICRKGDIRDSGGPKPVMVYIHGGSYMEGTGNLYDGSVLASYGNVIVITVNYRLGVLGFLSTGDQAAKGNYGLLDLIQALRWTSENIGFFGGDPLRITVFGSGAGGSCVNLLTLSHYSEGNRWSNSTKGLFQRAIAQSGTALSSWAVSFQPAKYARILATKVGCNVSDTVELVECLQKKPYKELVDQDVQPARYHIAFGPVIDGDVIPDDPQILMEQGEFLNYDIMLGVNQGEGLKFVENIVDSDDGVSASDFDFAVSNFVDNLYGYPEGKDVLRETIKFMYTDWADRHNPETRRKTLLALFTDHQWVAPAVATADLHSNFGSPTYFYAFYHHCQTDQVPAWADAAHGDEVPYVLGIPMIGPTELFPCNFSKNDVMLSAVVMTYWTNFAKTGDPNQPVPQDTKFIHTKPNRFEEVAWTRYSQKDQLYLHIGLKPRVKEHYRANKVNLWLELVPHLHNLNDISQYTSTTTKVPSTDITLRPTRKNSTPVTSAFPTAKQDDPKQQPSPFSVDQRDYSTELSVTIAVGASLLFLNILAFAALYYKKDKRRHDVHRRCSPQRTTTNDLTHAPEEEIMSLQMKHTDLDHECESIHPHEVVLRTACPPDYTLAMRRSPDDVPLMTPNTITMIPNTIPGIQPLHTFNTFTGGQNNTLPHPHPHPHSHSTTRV

How the values were obtained:
[1] = biological target: T1, full-length TSPAN5-GFP, wild-type (human) (UniProt P62079); assay: co-IP; HEK293 cells transfected with TSPAN5-GFP and HA-tagged NLG1 constructs, lysed in RIPA buffer; GFP-Trap magnetic beads 1 h at 4 °C; blots
T1 sequence: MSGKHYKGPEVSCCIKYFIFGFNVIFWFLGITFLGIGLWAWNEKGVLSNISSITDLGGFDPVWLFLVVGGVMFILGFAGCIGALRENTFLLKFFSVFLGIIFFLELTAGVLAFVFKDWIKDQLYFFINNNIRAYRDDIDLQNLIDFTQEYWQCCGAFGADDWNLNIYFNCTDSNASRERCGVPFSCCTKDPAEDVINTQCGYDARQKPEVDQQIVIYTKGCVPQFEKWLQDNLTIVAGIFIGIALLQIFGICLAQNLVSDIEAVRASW

[2] = biological target: T2, TSPAN5 (rat (endogenous in adult rat hippocampus and cortex)) (UniProt Q68VK5); assay: co-IP; adult rat hippocampus and cortex lysates in RIPA buffer (1% NP40, 1% Triton X-100); α-TSPAN5 antibody overnight at 4 °C, protein A-agarose beads; blots
T2 sequence: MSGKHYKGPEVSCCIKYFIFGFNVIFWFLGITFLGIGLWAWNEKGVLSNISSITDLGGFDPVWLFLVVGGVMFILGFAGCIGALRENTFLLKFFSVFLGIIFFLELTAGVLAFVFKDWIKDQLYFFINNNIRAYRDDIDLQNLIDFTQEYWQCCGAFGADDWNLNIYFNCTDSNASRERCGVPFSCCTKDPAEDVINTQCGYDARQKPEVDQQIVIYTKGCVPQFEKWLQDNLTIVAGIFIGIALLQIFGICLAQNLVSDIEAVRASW

AP-neuroligin-1 = AP-neuroligin-1 (UniProt Q99K10); assay: pull-down; HEK293 cells co-transfected with TSPAN5 constructs, AP-NLG1 and BirA-ER, lysed in RIPA buffer; biotinylated AP-NLG1 pulled down with streptavidin-agarose beads 3 h at 4 °C; blots

binding [1]: binds
Molecule: HA-tagged wild-type NLG1 (from UniProt Q99K10 46-843)

binding [2]: binds
Molecule: neuroligin-1 (from UniProt Q62765 46-843)

binding (AP-neuroligin-1): binds
B1: full-length TSPAN5-GFP, wild-type (protein, UniProt P62079 1-268)
chain: MSGKHYKGPEVSCCIKYFIFGFNVIFWFLGITFLGIGLWAWNEKGVLSNISSITDLGGFDPVWLFLVVGGVMFILGFAGCIGALRENTFLLKFFSVFLGIIFFLELTAGVLAFVFKDWIKDQLYFFINNNIRAYRDDIDLQNLIDFTQEYWQCCGAFGADDWNLNIYFNCTDSNASRERCGVPFSCCTKDPAEDVINTQCGYDARQKPEVDQQIVIYTKGCVPQFEKWLQDNLTIVAGIFIGIALLQIFGICLAQNLVSDIEAVRASW
